In article doi:10.1101/2025.05.29.656244:
No constants are given. Whether binding was seen depends on the method and setting. Binding seen in cells or lysates may run through a third protein. Some entries that bind do so weakly or less than the wild type.

By UniProt entry, the sequences of proteins in these tests, tags left out.
UniProt P10275: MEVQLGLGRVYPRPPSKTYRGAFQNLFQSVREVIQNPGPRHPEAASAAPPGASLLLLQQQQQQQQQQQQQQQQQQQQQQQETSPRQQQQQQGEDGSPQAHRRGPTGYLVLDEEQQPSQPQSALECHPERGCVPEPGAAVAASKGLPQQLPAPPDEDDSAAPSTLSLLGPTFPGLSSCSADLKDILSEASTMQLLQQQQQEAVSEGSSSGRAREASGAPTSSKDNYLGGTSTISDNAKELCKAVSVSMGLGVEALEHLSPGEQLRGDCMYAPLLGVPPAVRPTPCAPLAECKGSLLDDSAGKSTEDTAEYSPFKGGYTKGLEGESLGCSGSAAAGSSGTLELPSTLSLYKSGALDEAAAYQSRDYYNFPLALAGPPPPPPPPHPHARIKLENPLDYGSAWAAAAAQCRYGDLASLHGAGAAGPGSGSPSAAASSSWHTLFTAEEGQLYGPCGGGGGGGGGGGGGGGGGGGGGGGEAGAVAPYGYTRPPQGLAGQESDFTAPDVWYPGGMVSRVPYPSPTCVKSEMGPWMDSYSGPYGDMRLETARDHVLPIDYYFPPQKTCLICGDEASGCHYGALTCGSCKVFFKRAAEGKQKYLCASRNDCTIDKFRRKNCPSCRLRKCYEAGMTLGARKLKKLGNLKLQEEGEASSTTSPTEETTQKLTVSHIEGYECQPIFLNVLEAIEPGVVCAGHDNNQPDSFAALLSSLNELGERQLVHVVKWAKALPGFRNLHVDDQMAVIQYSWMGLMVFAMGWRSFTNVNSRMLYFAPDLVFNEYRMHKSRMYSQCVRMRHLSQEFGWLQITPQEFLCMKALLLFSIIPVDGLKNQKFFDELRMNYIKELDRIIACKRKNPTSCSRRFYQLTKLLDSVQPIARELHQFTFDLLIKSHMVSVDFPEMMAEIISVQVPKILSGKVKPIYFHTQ
UniProt Q92830: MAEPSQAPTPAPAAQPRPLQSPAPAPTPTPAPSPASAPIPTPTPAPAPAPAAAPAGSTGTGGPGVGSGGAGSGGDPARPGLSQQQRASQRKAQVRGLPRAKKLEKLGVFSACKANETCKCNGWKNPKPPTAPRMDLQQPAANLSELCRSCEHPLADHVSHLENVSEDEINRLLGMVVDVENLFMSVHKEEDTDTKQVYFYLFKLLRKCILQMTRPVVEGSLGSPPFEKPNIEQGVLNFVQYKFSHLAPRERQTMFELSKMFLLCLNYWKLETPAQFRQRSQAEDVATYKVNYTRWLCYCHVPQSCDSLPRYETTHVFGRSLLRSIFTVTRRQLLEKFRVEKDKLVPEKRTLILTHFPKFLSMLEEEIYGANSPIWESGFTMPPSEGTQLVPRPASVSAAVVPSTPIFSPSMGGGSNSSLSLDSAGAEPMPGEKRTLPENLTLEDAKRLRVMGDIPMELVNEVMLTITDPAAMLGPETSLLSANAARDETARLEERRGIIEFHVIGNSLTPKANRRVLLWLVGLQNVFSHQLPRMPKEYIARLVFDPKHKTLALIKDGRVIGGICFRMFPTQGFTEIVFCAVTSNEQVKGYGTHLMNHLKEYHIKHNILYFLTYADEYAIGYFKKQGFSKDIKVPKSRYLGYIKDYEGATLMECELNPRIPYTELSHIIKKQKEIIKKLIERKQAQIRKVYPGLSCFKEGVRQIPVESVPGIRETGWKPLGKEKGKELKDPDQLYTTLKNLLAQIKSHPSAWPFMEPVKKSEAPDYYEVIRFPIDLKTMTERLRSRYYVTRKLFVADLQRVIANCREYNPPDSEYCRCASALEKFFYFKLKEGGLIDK

Target: T1, PTGES3 (human (endogenous in LNCaP)) (UniProt Q15185)
T1 sequence: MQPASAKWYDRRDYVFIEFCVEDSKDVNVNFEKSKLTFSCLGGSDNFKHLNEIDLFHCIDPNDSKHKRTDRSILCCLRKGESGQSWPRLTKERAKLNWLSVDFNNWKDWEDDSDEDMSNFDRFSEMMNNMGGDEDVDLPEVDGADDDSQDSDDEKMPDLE
Assay: co-IP

Row | binding | Substance
1 | binds | androgen receptor (AR) (from UniProt P10275 1-920)
2 | binds | histone acetyltransferase KAT2A (from UniProt Q92830 1-837) (enzyme)
